According to US20040248099A1, “Use of intermediate -conductance potassium channels and modulators for diagnosing and treating diseases having disturbed keratinocyte activity” (priority 2000, published 2004):
For at least one compound, name, drawing or mass did not settle the structure.

System: HaCaT keratinocytes
Assay: Patch-clamp recording of the membrane potential of HaCaT keratinocytes (current clamp; ATP-induced response)
Format: cell-based, human
Conditions: forskolin 10 μM pretreatment for 3-10 min, n=5
Protocol: In order to identify an ion channel which is substantially involved in the transduction of wound healing-specific signals, HaCaT cells were investigated electrophysiologically. The HaCaT keratinocytes were propagated in DEM containing 10% FCS (Gibco BRL) to which antibiotics (penicillin/streptomycin, 100 U/ml) had been added. […] The patch pipettes were prepared from small borosilicate tubes on a horizontal pulling device (DMZ, Zeitz) using the two-step pulling method. […] The resistance of these patch pipettes was 5-8 GΩ in the bath. After a seal in the GΩ range had been produced (typically 1.5-2 GΩ) the amplifier was switched to current clamp mode. […] The electrophysiological signals were recorded, amplified and digitalized using an Axopatch 200 amplifier in combination with a TL-1 Labmaster Interface and AXOTAPE software (Axon Instruments). The statistical analysis (one-way ANOVA with Bonferri post-test comparison) was carried out using Graphpad prism 2.0. […]
The inflow of liquid was gravity-dependent and was controlled by means of magnetic valves. Outflow was effected by applying a negative pressure using a vacuum pump. Substances were added, while observing visually, directly into the keratinocytes under investigation using a remotely controlled, magnet-controlled Y tube system (diameter of the efflux tube: 100 μm). […]

C=C[C@@]1(C)CC(=O)[C@]2(O)[C@@]3(C)[C@@H](O)CCC(C)(C)[C@@H]3[C@H](O)[C@H](OC(C)=O)[C@@]2(C)O1 [forskolin]
effect on the resting potential and on the voltage changes after adding ATP: did not have any effect
